# The supplement of paper PMC10060354, “Discovery of a small molecule ligand of FRS2 that inhibits invasion and tumor growth” (Cellular Oncology, 2022)
# Protein sequences, listed by entry. Tags and fused reporters are not part of them. Lines headed by an entry give the natural chain unless they say otherwise; changes in a name come on top.
# UniProt P09651: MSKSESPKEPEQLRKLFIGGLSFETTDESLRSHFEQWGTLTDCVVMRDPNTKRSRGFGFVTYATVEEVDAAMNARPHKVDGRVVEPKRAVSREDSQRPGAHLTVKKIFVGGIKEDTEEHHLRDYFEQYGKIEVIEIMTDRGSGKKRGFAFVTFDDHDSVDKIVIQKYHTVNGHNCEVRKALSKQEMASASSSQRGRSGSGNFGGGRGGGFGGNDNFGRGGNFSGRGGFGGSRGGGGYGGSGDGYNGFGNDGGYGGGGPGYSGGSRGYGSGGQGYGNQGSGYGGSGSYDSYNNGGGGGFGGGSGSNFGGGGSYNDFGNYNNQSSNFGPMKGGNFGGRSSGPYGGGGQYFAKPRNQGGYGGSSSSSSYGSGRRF
# UniProt O94973, whole entry: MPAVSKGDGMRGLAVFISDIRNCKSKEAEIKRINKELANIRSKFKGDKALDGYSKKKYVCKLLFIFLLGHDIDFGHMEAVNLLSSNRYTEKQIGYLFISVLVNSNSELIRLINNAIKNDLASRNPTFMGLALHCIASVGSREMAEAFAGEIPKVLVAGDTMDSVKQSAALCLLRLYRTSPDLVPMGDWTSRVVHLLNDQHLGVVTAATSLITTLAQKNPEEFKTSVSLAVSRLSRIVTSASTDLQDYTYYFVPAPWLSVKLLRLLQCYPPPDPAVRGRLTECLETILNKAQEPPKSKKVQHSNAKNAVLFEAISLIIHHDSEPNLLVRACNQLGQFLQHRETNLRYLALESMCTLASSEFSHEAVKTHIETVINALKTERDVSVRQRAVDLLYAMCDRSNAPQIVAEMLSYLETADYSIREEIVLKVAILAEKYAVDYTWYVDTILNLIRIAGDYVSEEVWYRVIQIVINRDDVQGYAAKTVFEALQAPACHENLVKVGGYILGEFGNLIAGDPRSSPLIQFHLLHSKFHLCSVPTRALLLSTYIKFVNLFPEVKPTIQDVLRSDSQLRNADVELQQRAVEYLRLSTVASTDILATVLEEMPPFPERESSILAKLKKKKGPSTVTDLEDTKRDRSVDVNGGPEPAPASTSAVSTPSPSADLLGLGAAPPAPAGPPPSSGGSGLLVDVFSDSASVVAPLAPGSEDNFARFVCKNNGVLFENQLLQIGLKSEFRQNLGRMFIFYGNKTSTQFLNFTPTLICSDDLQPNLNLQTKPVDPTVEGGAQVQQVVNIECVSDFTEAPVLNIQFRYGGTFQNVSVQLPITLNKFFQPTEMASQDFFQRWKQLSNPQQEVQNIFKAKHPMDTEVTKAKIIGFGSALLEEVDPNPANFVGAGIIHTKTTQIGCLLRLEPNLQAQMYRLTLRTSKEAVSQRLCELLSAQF
# UniProt Q9NVG8: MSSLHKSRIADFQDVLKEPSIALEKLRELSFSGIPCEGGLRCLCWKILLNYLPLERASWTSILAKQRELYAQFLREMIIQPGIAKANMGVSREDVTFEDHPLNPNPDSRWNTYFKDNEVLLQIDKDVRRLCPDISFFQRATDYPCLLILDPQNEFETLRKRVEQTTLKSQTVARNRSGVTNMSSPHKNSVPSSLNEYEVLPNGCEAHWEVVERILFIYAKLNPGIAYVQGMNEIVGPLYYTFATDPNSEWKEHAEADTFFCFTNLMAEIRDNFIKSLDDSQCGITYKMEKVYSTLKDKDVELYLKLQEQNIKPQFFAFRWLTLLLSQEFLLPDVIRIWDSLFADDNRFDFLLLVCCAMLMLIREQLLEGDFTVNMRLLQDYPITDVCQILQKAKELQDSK
# UniProt Q9Y296, whole entry: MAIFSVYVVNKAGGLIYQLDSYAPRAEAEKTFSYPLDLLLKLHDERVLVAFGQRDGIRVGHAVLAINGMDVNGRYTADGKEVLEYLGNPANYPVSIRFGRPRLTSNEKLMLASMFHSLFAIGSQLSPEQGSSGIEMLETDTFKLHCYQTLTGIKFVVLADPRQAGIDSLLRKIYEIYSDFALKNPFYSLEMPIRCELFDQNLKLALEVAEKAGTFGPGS
# UniProt E9PAV3, whole entry, looked up: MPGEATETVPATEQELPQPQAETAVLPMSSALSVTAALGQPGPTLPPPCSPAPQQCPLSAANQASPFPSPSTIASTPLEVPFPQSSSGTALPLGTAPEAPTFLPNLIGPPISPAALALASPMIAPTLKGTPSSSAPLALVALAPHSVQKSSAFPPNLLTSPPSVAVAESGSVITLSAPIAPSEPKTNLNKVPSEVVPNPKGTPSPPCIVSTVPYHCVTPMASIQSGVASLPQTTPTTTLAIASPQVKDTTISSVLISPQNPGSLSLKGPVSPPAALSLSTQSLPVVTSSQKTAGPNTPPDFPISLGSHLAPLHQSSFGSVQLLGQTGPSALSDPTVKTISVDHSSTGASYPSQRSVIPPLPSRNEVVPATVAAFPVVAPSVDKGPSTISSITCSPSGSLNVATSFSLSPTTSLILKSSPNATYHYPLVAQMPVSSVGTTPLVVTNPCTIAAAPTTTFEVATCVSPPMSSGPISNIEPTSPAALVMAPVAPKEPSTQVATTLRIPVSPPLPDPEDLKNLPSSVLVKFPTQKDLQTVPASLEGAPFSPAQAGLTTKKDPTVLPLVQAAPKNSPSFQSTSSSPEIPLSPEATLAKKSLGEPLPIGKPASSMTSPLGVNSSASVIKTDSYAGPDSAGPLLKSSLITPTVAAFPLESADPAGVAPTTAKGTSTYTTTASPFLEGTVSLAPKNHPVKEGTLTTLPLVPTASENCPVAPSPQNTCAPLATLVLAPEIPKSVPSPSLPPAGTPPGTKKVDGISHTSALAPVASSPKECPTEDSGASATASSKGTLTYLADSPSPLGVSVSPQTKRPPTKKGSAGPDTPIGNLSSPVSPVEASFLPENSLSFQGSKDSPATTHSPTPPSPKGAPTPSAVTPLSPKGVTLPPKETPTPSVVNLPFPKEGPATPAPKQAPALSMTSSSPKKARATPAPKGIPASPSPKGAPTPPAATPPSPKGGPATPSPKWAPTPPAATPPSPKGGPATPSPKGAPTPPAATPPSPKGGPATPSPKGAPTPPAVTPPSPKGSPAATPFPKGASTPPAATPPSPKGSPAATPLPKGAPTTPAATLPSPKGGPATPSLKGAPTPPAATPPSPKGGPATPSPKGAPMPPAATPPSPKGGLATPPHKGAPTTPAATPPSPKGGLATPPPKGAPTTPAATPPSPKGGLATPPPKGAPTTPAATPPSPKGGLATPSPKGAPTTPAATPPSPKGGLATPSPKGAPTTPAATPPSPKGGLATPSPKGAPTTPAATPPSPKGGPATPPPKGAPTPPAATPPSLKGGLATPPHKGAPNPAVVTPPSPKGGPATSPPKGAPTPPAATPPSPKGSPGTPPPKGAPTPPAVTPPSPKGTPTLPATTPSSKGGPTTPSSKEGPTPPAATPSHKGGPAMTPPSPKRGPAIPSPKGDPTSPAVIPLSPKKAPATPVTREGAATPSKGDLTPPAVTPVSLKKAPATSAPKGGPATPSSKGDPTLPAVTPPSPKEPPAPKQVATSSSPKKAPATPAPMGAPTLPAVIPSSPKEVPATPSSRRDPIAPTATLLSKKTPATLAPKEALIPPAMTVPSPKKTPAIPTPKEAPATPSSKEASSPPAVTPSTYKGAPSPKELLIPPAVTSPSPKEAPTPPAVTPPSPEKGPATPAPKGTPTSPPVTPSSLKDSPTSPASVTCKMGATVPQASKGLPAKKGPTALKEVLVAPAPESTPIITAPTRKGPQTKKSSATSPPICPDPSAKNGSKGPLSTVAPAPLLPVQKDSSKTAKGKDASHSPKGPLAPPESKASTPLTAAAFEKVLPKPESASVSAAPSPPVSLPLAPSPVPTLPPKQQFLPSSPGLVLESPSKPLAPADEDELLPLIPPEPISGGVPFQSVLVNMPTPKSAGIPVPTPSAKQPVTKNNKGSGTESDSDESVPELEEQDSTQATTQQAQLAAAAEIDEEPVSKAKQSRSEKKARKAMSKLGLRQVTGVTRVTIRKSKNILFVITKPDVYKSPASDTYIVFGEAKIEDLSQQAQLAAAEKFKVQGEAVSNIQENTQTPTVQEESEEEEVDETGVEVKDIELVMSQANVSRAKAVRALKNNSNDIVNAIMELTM
# UniProt Q6NUQ4: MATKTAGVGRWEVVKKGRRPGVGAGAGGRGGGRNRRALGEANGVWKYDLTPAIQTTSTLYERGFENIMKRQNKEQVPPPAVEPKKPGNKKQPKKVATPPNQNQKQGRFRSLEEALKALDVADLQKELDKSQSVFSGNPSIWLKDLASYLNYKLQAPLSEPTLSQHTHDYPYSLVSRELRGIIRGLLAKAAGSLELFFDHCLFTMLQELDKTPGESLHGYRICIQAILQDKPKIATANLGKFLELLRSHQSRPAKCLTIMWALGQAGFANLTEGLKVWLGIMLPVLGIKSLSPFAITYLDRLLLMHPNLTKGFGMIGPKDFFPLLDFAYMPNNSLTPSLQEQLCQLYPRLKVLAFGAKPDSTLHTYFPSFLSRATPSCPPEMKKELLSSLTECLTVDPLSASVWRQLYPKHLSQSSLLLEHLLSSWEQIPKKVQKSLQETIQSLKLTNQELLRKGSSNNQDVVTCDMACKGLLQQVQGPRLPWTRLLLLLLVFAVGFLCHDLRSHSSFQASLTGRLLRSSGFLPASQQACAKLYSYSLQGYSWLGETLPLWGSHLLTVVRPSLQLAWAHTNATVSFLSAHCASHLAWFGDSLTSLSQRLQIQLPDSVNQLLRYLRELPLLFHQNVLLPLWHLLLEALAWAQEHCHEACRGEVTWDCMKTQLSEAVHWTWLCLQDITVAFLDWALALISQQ
# UniProt P69849: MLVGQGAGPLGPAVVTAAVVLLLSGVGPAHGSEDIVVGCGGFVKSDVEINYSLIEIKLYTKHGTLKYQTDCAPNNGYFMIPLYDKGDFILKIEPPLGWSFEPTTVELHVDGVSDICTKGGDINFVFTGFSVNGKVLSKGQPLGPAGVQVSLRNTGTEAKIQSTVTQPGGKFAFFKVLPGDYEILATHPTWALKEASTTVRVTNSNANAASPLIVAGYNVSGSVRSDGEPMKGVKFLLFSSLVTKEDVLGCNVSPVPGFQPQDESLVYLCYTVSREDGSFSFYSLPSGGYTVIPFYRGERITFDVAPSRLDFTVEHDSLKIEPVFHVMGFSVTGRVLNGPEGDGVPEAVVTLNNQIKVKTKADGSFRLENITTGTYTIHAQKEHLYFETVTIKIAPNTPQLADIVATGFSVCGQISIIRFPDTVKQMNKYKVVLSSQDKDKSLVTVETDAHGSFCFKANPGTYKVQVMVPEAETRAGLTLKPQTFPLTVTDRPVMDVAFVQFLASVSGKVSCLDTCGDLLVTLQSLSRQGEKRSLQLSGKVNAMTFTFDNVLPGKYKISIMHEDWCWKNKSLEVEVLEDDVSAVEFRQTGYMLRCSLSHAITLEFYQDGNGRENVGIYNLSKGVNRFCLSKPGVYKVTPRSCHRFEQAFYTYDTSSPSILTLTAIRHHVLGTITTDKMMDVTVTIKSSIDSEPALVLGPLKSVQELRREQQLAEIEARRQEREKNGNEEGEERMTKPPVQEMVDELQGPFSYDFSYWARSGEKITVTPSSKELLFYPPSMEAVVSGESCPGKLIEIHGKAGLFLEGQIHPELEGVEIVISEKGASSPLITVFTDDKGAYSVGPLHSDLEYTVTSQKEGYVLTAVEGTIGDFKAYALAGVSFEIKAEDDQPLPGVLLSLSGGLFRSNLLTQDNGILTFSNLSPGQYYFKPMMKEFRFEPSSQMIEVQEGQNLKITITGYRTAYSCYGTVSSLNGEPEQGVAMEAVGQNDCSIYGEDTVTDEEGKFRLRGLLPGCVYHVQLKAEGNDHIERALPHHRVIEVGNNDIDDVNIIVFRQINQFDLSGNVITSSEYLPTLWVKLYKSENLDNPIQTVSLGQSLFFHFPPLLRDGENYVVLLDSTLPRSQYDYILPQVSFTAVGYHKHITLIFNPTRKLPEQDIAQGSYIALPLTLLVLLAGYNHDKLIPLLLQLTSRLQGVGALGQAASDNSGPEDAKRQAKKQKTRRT
# P0DPI3, A0A0U1RR11, UniProt A0A0U1RR11, whole entry: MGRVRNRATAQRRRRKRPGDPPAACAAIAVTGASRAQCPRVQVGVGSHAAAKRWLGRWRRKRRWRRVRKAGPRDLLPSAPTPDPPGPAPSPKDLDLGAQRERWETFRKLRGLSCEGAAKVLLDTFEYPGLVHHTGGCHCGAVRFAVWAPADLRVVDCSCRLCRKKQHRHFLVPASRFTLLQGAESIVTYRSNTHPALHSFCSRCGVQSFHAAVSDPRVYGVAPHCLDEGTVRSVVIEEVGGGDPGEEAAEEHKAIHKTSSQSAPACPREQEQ
# UniProt O14548: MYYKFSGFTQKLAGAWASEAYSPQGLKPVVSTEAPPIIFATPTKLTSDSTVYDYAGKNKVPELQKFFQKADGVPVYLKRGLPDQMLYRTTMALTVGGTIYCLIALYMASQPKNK
# UniProt P05937: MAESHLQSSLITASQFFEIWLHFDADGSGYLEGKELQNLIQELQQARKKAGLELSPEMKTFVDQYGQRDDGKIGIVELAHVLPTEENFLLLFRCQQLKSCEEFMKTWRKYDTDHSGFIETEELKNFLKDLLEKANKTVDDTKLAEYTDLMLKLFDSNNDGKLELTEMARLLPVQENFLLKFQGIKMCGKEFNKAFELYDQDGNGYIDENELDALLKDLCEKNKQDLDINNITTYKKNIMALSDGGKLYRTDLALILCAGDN
# Many values rest on one well or one pass, so single values are uncertain.
# Compound: [O-][N+](C(C1=C(C(O)=C2)NC(C(C=C3)=CC=C3Cl)C4C1C=CC4)=C2Cl)=O
# Assay: melting temperature shift (compound 7 minus DMSO); higher = compound stabilises the protein
# Conditions: 10 µM
# Method: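 Thermal proteome profiling (TMT mass spectrometry) in intact DAOY medulloblastoma cells or DAOY lysates treated with 10 µM compound 7 or DMSO, heated at 10 temperatures from 40.5 to 73.8 °C for 3 min. Melting curves were fitted with the Bioconductor TPP package, and the melting point difference between compound and vehicle is reported per protein (single curve per condition).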
# [1] = system: DAOY cell lysate, treatment time: 20 min, 4 °C
# [2] = system: intact DAOY cells, treatment time: 90 min, 37 °C
target,measurement,setting,value
PARK7 (UniProt Q99497),melting temperature shift,[1],-1.1 °C
same,melting temperature shift,[2],-2.64 °C
SCAF11 (UniProt Q99590),melting temperature shift,[1],0.528 °C
same,melting temperature shift,[2],0.613 °C
BOD1L1 (UniProt Q8NFC6),melting temperature shift,[1],-2.71 °C
GMDS (UniProt O60547),melting temperature shift,[1],-0.343 °C
same,melting temperature shift,[2],-1.13 °C
UniProt Q6P1S2,melting temperature shift,[1],-0.89 °C
CLDND1 (UniProt Q9NY35),melting temperature shift,[1],-3.06 °C
DCXR (UniProt Q7Z4W1),melting temperature shift,[1],0.167 °C
same,melting temperature shift,[2],-0.39 °C
UniProt Q9BWK5,melting temperature shift,[1],2.48 °C
UniProt P00750,melting temperature shift,[2],6.23 °C
TRABD (UniProt Q9H4I3),melting temperature shift,[1],1.92 °C
HNRNPA1 (UniProt P09651),melting temperature shift,[1],0.908 °C
same,melting temperature shift,[2],0.00459 °C
DOK1 (UniProt Q99704),melting temperature shift,[1],-2.53 °C
same,melting temperature shift,[2],-0.538 °C
RABGAP1 (UniProt Q9Y3P9),melting temperature shift,[1],-0.118 °C
same,melting temperature shift,[2],-0.0664 °C
AP2A2 (UniProt O94973),melting temperature shift,[1],-0.301 °C
same,melting temperature shift,[2],0.164 °C
COASY (UniProt Q13057),melting temperature shift,[1],-1.88 °C
same,melting temperature shift,[2],-0.521 °C
UniProt O75575,melting temperature shift,[1],-0.299 °C
UBE2G2 (UniProt P60604),melting temperature shift,[1],-1.76 °C
same,melting temperature shift,[2],0.757 °C
TBC1D13 (UniProt Q9NVG8),melting temperature shift,[1],-1.42 °C
same,melting temperature shift,[2],0.245 °C
UniProt Q9UHD8,melting temperature shift,[1],-0.224 °C
same,melting temperature shift,[2],-0.02 °C
UniProt Q7LC44,melting temperature shift,[1],0.256 °C
TRAPPC4 (UniProt Q9Y296),melting temperature shift,[1],-0.712 °C
same,melting temperature shift,[2],1.36 °C
FARP1 (UniProt Q9Y4F1),melting temperature shift,[1],1.74 °C
same,melting temperature shift,[2],-1.07 °C
UniProt P24390,melting temperature shift,[2],-1.19 °C
KEAP1 (UniProt Q14145),melting temperature shift,[1],-0.395 °C
same,melting temperature shift,[2],-0.648 °C
UniProt E9PAV3,melting temperature shift,[1],-1.24 °C
UniProt Q15035,melting temperature shift,[1],1.26 °C
same,melting temperature shift,[2],-3.12 °C
PSMB5 (UniProt P28074),melting temperature shift,[2],-0.379 °C
PGRMC1 (UniProt O00264),melting temperature shift,[1],1.95 °C
GABARAP (UniProt O95166),melting temperature shift,[1],-1.04 °C
UniProt P18405,melting temperature shift,[1],-0.59 °C
TMEM214 (UniProt Q6NUQ4),melting temperature shift,[1],0.873 °C
same,melting temperature shift,[2],-0.846 °C
ALG5 (UniProt Q9Y673),melting temperature shift,[1],0.695 °C
same,melting temperature shift,[2],-1.03 °C
CBX5 (UniProt P45973),melting temperature shift,[1],0.823 °C
same,melting temperature shift,[2],0.877 °C
HIF1AN (UniProt Q9NWT6),melting temperature shift,[1],-1.09 °C
same,melting temperature shift,[2],0.455 °C
RPA1 (UniProt P27694),melting temperature shift,[1],-0.568 °C
same,melting temperature shift,[2],-0.691 °C
IPO13 (UniProt O94829),melting temperature shift,[1],1.09 °C
SLC30A9 (UniProt Q6PML9),melting temperature shift,[1],-2.05 °C
same,melting temperature shift,[2],-1.62 °C
KANK2 (UniProt Q63ZY3),melting temperature shift,[1],-0.126 °C
UniProt Q9HCP0,melting temperature shift,[2],1.65 °C
UniProt P69849,melting temperature shift,[1],1.27 °C
same,melting temperature shift,[2],-0.762 °C
UniProt P43365,melting temperature shift,[1],-1.21 °C
LPGAT1 (UniProt Q92604),melting temperature shift,[1],0.737 °C
same,melting temperature shift,[2],0.317 °C
"P0DPI3, A0A0U1RR11",melting temperature shift,[2],-0.554 °C
PTPRF (UniProt P10586),melting temperature shift,[1],0.811 °C
same,melting temperature shift,[2],0.507 °C
COX7A2L (UniProt O14548),melting temperature shift,[1],3.22 °C
same,melting temperature shift,[2],0.639 °C
WDR44 (UniProt Q5JSH3),melting temperature shift,[1],-1.06 °C
same,melting temperature shift,[2],-0.132 °C
DDHD2 (UniProt O94830),melting temperature shift,[1],3.35 °C
same,melting temperature shift,[2],-1.22 °C
SRPK1 (UniProt Q96SB4),melting temperature shift,[1],-0.806 °C
same,melting temperature shift,[2],0.201 °C
VPS13A (UniProt Q96RL7),melting temperature shift,[1],0.0619 °C
same,melting temperature shift,[2],-0.347 °C
UniProt Q13015,melting temperature shift,[1],-0.149 °C
APMAP (UniProt Q9HDC9),melting temperature shift,[1],1.35 °C
same,melting temperature shift,[2],0.573 °C
UniProt Q9UL42,melting temperature shift,[1],-1.02 °C
same,melting temperature shift,[2],-0.114 °C
ATN1 (UniProt P54259),melting temperature shift,[1],-1.44 °C
RPS6 (UniProt P62753),melting temperature shift,[1],0.764 °C
same,melting temperature shift,[2],-0.767 °C
UniProt Q14964,melting temperature shift,[2],-1.58 °C
DNAJC21 (UniProt Q5F1R6),melting temperature shift,[1],0.141 °C
MAGT1 (UniProt Q9H0U3),melting temperature shift,[1],1.46 °C
same,melting temperature shift,[2],0.574 °C
UniProt P05937,melting temperature shift,[2],0.178 °C
ARPC4 (UniProt P59998),melting temperature shift,[1],-1.49 °C
same,melting temperature shift,[2],0.507 °C
TPT1 (UniProt P13693),melting temperature shift,[1],-0.801 °C
same,melting temperature shift,[2],0.638 °C

# Part of the list above, reformatted:
target	measurement	setting	value
HNRNPA1 (UniProt P09651)	melting temperature shift	[2]	0.00459 °C
DOK1 (UniProt Q99704)	melting temperature shift	[1]	-2.53 °C
same	melting temperature shift	[2]	-0.538 °C
RABGAP1 (UniProt Q9Y3P9)	melting temperature shift	[1]	-0.118 °C
same	melting temperature shift	[2]	-0.0664 °C
